Data source: PubChem BioAssay AID720505 (Drosophila RNAi Screening Center, 2013)

Test: 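Knock-downs that reduce calcium influx once internal stores are emptied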 (primary screen)
Cells: Drosophila S2R+ cells
Knock-down reagent: long dsRNA against Drosophila genes
Challenge: thapsigargin (2 µM) in calcium-free buffer to empty internal stores, then 2 mM calcium added back
Read-out: 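Fluo-4 signal in 384-well plates read on a FLIPR after thapsigargin (2 µM, calcium-free) store depletion and 2 mM calcium add-back; unnormalised mean endpoint per well; screen run twice, selected wells retested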
Reading the numbers: calcium signal and retest calcium signal: higher = more calcium entry after store depletion
Call rule: 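About 1500 genes called as lowering calcium entry, by varying amounts, judged against per-plate control wells with STIM1 as positive and Rho1 as negative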
Meaning of the calls: active = called as lowering calcium entry; inactive = not called
The screen tested about 20,000 reagents; shown is a random part of those that have a named target and a result. Over the whole deposit, about 2,100 (10%) got an active call. 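Raw plate signals without normalisation; calls rest on control-based scores that were not deposited; replicate 2 separates called from uncalled poorly.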 Names joined by + are all predicted targets of the reagent. Not stated in the record: the amount of reagent, the time to read-out.

Silencing of Ziz [DRSC02506] came out at: calcium signal, replicate 1 = 192; calcium signal, replicate 2 = 89.3; inactive.
Depletion of Ziz [DRSC02976] gave: calcium signal, replicate 1 = 55; calcium signal, replicate 2 = 151; active.
With knock-down of CG30380 [DRSC05069], the screen gave calcium signal, replicate 1 = 97.3; calcium signal, replicate 2 = 147; inactive.
Eaat2 [DRSC00032] showed calcium signal, replicate 1 = 90; calcium signal, replicate 2 = 117; inactive.
Against Eaat2 [DRSC00749], the entry reads calcium signal, replicate 1 = 148; calcium signal, replicate 2 = 157; inactive.
Against CG43345 + CG43346 [DRSC03164] the deposit lists calcium signal, replicate 1 = 111; calcium signal, replicate 2 = 95.8; inactive.
With knock-down of PGRP-LD + Pmi [DRSC10512], the record shows calcium signal, replicate 1 = 59; calcium signal, replicate 2 = 118; active.
Against PGRP-LD + Pmi [DRSC10513], the entry reads calcium signal, replicate 1 = 117; calcium signal, replicate 2 = 83.3; retest calcium signal, replicate 1 = 81.4; retest calcium signal, replicate 2 = 113; inactive.
Against DUBAI + Tmem18 [DRSC05344], the entry reads calcium signal, replicate 1 = 94.8; calcium signal, replicate 2 = 142; inactive.
Depletion of Prx6c + CG12896 + Prx6b [DRSC06148] resulted in: calcium signal, replicate 1 = 129; calcium signal, replicate 2 = 157; inactive.
For dpr7 [DRSC17109], the values are inactive.
CG18518 [DRSC01509] showed calcium signal, replicate 1 = 206; calcium signal, replicate 2 = 123; inactive.
AlaRS-m [DRSC09660] showed calcium signal, replicate 1 = 113; calcium signal, replicate 2 = 88.6; inactive.
Depletion of beta3GalTII [DRSC07253] gave: calcium signal, replicate 1 = 132; calcium signal, replicate 2 = 198; inactive.
nop5 [DRSC03582] gave calcium signal, replicate 1 = 150; calcium signal, replicate 2 = 98.1; inactive.
lqf [DRSC11363] gave calcium signal, replicate 1 = 97.3; calcium signal, replicate 2 = 151; inactive.
Against Spn28B [DRSC02982] the deposit lists calcium signal, replicate 1 = 62; calcium signal, replicate 2 = 63.3; retest calcium signal, replicate 1 = 165; retest calcium signal, replicate 2 = 93.9; active.

Quoted from above, 3 entries:
PGRP-LD + Pmi [DRSC10513] — calcium signal, replicate 1 = 117; calcium signal, replicate 2 = 83.3; retest calcium signal, replicate 1 = 81.4; retest calcium signal, replicate 2 = 113; call = inactive
DUBAI + Tmem18 [DRSC05344] — calcium signal, replicate 1 = 94.8; calcium signal, replicate 2 = 142; call = inactive
Prx6c + CG12896 + Prx6b [DRSC06148] — calcium signal, replicate 1 = 129; calcium signal, replicate 2 = 157; call = inactive

More reagents follow:
For CG13088 [DRSC02192], the entry reads calcium signal, replicate 1 = 157; calcium signal, replicate 2 = 170; inactive.
After knock-down of CG8314 [DRSC07144], the screen gave calcium signal, replicate 1 = 120; calcium signal, replicate 2 = 89; inactive.
Silencing of GstD6 [DRSC16687] came out at: calcium signal, replicate 1 = 129; calcium signal, replicate 2 = 92.6; inactive.
Against CG15742 [DRSC19708], the values are calcium signal, replicate 1 = 147; calcium signal, replicate 2 = 131; inactive.
Against Pus1 [DRSC15548] the deposit lists calcium signal, replicate 1 = 238; calcium signal, replicate 2 = 210; inactive.
Ns3 [DRSC18607] scored calcium signal, replicate 1 = 72.4; calcium signal, replicate 2 = 82.8; retest calcium signal, replicate 1 = 94.6; retest calcium signal, replicate 2 = 83; active.
With knock-down of Bacc [DRSC00735], the screen gave calcium signal, replicate 1 = 184; calcium signal, replicate 2 = 156; inactive.
For Notum [DRSC09959] the deposit lists calcium signal, replicate 1 = 82.8; calcium signal, replicate 2 = 131; inactive.
Nup35 [DRSC19999] showed calcium signal, replicate 1 = 185; calcium signal, replicate 2 = 158; inactive.
For mib1 [DRSC10550] the deposit lists calcium signal, replicate 1 = 93.2; calcium signal, replicate 2 = 97; active.
CG9166 [DRSC07842] scored calcium signal, replicate 1 = 84.2; calcium signal, replicate 2 = 143; inactive.
